{
  "sequences": {"note": "Protein sequences, listed by entry. Tags and fused reporters are not part of them.", "UniProt P45481": "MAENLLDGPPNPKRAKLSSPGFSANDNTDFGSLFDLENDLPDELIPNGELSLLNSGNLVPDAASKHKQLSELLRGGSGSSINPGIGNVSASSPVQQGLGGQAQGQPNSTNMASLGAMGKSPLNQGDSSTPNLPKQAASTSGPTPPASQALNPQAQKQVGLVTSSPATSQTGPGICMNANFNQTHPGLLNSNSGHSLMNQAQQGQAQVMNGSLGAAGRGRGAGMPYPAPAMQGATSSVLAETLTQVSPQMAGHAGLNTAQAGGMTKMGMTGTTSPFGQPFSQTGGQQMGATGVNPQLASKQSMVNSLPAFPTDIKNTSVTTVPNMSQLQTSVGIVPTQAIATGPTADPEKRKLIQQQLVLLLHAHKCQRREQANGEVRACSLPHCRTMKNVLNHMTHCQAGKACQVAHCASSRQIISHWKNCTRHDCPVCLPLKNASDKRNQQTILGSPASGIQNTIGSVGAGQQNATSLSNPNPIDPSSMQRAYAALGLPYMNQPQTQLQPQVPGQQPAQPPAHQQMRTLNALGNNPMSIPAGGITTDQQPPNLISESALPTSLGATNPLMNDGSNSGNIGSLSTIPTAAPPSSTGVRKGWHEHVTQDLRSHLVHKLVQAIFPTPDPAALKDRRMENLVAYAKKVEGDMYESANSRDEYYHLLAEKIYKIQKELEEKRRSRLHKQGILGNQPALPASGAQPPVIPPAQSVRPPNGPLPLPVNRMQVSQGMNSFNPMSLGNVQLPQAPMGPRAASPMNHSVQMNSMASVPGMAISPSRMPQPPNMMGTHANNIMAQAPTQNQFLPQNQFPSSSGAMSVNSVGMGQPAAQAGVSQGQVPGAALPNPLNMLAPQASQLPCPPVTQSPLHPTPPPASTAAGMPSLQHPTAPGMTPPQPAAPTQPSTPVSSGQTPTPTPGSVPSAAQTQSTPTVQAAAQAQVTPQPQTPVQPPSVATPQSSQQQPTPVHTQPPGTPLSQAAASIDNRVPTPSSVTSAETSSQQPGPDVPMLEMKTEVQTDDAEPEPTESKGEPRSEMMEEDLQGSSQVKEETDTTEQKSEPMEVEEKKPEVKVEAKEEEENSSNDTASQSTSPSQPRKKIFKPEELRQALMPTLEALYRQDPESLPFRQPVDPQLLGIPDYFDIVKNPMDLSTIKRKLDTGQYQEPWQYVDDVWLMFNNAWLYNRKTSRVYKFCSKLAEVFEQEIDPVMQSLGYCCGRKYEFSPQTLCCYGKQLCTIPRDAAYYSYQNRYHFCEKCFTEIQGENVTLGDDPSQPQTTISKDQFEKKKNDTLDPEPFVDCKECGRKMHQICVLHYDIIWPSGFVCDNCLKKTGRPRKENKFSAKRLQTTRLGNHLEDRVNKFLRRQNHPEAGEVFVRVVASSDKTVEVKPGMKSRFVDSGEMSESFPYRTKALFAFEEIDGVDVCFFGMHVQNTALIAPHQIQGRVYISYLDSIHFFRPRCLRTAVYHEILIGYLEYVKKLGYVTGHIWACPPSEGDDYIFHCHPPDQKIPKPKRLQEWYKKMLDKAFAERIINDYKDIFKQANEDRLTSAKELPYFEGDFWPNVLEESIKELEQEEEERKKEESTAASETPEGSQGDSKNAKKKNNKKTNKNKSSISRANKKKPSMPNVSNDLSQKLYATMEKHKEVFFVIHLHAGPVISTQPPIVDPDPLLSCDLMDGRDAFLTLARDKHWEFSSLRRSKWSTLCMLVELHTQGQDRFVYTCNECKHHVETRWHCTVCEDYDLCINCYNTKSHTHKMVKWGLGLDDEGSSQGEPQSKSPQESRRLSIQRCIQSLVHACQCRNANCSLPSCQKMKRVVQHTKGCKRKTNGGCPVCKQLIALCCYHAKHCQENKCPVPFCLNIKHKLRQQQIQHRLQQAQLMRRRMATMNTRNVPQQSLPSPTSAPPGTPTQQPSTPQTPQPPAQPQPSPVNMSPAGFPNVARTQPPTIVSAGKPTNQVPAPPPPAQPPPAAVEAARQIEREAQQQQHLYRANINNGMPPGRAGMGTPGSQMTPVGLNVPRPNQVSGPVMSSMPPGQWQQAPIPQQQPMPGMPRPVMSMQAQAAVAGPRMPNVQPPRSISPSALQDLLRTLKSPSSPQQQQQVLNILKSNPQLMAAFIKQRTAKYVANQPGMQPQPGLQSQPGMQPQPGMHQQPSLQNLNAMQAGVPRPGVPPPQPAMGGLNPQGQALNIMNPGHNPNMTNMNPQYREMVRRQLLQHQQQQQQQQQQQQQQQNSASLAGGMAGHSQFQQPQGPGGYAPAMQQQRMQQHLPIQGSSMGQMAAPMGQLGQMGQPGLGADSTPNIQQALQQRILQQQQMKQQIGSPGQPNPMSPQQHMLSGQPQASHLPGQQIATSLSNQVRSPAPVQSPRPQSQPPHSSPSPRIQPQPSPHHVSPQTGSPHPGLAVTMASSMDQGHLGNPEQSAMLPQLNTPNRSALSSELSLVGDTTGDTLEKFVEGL"},
  "source": "paper PMC6761150",
  "binders": {"B1": {"name": "Trim24 found by mass spectrometry in the CBP immunoprecipitate (protein, UniProt Q64127 1-1051)", "chain": "MEVAVEKAAAAAAPAGGPAAAAPSGENEAESRQGPDSESGGEASRLNLLDTCAVCHQNIQSRVPKLLPCLHSFCQRCLPAPQRYLMLTAPALGSAETPPPAPAPAPAPGSPAGGPSPFATQVGVIRCPVCSQECAERHIIDNFFVKDTTEVPSSTVEKSNQVCTSCEDNAEANGFCVECVEWLCKTCIRAHQRVKFTKDHTVRQKEEVSPEAVGVTSQRPVFCPFHKKEQLKLYCETCDKLTCRDCQLLEHKEHRYQFIEEAFQNQKVIIDTLITKLMEKTKYIKYTGNQIQNRIIEINQNQKQVEQDIKVAIFTLMVEINKKGKALLHQLESLAKDHRMKLMQQQQEVAGLSKQLEHVMHFSKWAVSSGSSTALLYSKRLITYRLRHLLRARCDASPVTNTTIQFHCDPSFWAQNIINLGSLVIEDKESQPQMPKQNPVVEQSSQPPGGLPSNQLSKFPTQISLAQLRLQHIQQQVMAQRQQVQRRPAPVGLPNPRMQGPIQQPSISHQHPPPRLINFQNHSPKPNGPVLPPYPQQLRYSPSQNVPRQTTIKPNPLQMAFLAQQAIKQWQISSVQAPPTTASSSSSTPSSPTITSAAGYDGKAFSSPMIDLSAPVGGSYNLPSLPDIDCSSTIMLDNIARKDTGVDHAQPRPPSNRTVQSPNSSVPSPGLAGPVTMTSVHPPIRSPSASSVGSRGSSGSSSKPAGADSTHKVPVVMLEPIRIKQENSGPPENYDFPVVIVKQESDEESRPQNTNYPRSILTSLLLNSSQSSASEETVLRSDAPDSTGDQPGLHQENSSNGKSEWSDASQKSPVHVGETRKEDDPNEDWCAVCQNGGELLCCEKCPKVFHLTCHVPTLTNFPSGEWICTFCRDLSKPEVDYDCDVPSHHSEKRKSEGLTKLTPIDKRKCERLLLFLYCHEMSLAFQDPVPLTVPDYYKIIKNPMDLSTIKKRLQEDYCMYTKPEDFVADFRLIFQNCAEFNEPDSEVANAGIKLESYFEELLKNLYPEKRFPKVEFRHEAEDCKFSDDSDDDFVQPRKKRLKSTEDRQLLK"}},
  "substrate": "CBP immunoprecipitated for the mass spectrometry screen of CBP-binding proteins (UniProt P45481)",
  "experiment": "affinity purification with mass spectrometry; immunoprecipitation of CBP followed by mass spectrometry (unique peptides >= 1); cells not given",
  "note": "Results are given in words; binding and its absence hold for the method and conditions named. In cells and extracts the contact can be indirect. These calls come from enrichment with a bait or labelling near it, and not all partners need be listed.",
  "data": [
    {"binder": "B1", "values": [
      {"measurement": "binding", "result": "binds"}
    ]}
  ]
}
